In article PMC10388354, “Ir(III) Compounds Containing a Terdentate Ligand Are Potent Inhibitors of Proliferation and Effective Antimetastatic Agents in Aggressive Triple-Negative Breast Cancer Cells” (Journal of Medicinal Chemistry, 2023) one finds IC50 data, which are given here for one compound.

The subject of one test is MCF-7 cells. Briefly: Antiproliferative activity, sulforhodamine B (SRB) assay. In kind it is cell-based. The settings on record: Homo sapiens, MCF7, 72 h incubation, mean ± SD. How it is done:
(§1) The antiproliferative activity of the investigated compounds was evaluated using the SRB assay. The cells were seeded in 96-well tissue culture plates at a density of 3 × 10^3 cells/well in 100 μL of the medium. After overnight incubation in a humidified CO2 incubator, the cells were treated with the tested compounds in a final volume of 200 μL/well. After an additional 72 h, cells were washed with PBS and fixed for 1 h at 4 °C with trichloroacetic acid. Then, the cells were stained with 0.4% SRB dye for 30 min. Stained cells were dissolved with Tris (10 mM). The cell viability was evaluated by measurement of the absorbance at 570 nm using an absorbance reader (SPARK TECAN, SCHOELLER). The reading values were converted to the percentage of control (% cell survival). Antiproliferative effects were expressed as IC50 values calculated from curves constructed by plotting cell survival (%) versus drug concentration (μM) (IC50 = concentration of the agent inhibiting cell growth by 50%). Concentrations of compounds present in the medium during the treatment were verified by FAAS or ICP-MS.

Another test concerns MDA-MB-231 cells. The description is as above. In kind it is cell-based. The settings on record: Homo sapiens, 72 h incubation, mean ± SD. How it is done: as §1

In the case of `COc1cccc2c1C(=O)c1c(O)c3c(c(O)c1C2=O)C[C@@](O)(C(=O)CO)C[C@@H]3O[C@H]1C[C@H](N)[C@H](O)[C@H](C)O1` [Dox, doxorubicin], the IC50 in the test on MCF-7 cells was 330 ± 70 nM; in the test on MDA-MB-231 cells, 620 ± 80 nM.
